These are yes or no findings as the source states them, for the method shown. Binding can be weak; no strength is given. For some of these results: Where a sequence is shown, tags or fusion partners need not be part of it.
B1: HAUS8 (protein, UniProt Q0IHJ3 1-367)
chain: MSEAGVAPIEDGSQNSSGGSSGDAALKKSKGGAKVVKSRYMQIGRSKVSKNSLANTTVCSGGKVPERGSGGTPTRRSLAPHKAKITAAVPLPALDGSIFTKEDLQSTLLDGHRIARPDLDLSVINDRTLQKITPRPVVTSEQKKPKRDTTPVNLVPEDMVEMIESQTLLLTYLTIKMQKNLFRLEEKAERNLLLVNDQKDQLQETIHMMKRDLTLLQREERLRDLIEKQDEVLTPVVTSKDPFKDNYTTFATALDSTRHQLAIKNIHITGNRHRYLEELQKHLAITKSLLEEIMPSHASENAESFDTIKDLENIVLKTDEELARSFRQILDLSFKVNKEISLQSQKAVEETCESALVRQWYFDGSLP

What was measured:
2xFLAG-HAUS3 (X. laevis) [1] = biological target: T1, 2xFLAG-HAUS3 (X. laevis) (UniProt Q6DCY9); assay: cryo-EM structure; purified augmin TIII tetramer, single particle analysis, 7.7 Å global resolution; AlphaFold-Multimer model fitted by MDFF; both purified
T1 sequence: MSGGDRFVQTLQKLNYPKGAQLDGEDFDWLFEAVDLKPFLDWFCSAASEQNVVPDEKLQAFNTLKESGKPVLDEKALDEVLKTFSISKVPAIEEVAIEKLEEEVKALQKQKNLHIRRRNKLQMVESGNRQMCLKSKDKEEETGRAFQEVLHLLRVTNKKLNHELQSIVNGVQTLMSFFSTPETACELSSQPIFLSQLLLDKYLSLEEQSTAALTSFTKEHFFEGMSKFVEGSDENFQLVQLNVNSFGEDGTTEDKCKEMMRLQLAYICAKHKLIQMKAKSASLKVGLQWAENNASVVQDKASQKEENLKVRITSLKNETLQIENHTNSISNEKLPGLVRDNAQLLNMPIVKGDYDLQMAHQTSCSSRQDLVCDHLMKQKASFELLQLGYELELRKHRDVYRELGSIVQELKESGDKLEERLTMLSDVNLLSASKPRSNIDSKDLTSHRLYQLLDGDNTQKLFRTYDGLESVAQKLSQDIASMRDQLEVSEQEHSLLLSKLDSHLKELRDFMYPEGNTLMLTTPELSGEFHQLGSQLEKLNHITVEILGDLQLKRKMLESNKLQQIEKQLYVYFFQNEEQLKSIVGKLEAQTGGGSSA

2xFLAG-HAUS6 (X. laevis) = 2xFLAG-HAUS6 (X. laevis) (UniProt A0JPI0); assay: negative stain EM 3D reconstruction; augmin octamer from co-expression of all eight subunits, anti-FLAG elution and SEC (Superose 6 increase); predicted models docked as rigid bodies; both purified
2xFLAG-HAUS3 (X. laevis) [2] = biological target: T1, 2xFLAG-HAUS3 (X. laevis); assay: cross-linking; 50 µg AEC-purified TIII tetramer, 0.1 mM BS3, 15 min, RT; mass spectrometry; 190 highest-scoring crosslinks mapped on the model; both purified

| Molecule | binding (2xFLAG-HAUS3 (X. laevis) [1]) | binding (2xFLAG-HAUS6 (X. laevis)) | binding (2xFLAG-HAUS3 (X. laevis) [2]) |
| --- | --- | --- | --- |
| HAUS1-EGFP-HIS8 (X. laevis) | binds |  |  |
| HAUS2 (from UniProt Q6INL9) |  | binds |  |
| HAUS4 (from UniProt Q4V7I1) | binds |  |  |
| HAUS5 (X. laevis) | binds |  | binds |
| HAUS7 (from UniProt B1H1T5) |  | binds |  |
| B1 |  | binds |  |

From publication PMC9512787
